Test results from publication PMC11996679, “Molecular basis of human nuclear and mitochondrial tRNA 3′ processing” (Nature Structural & Molecular Biology, 2024).
Construct, isoform or probe ends are uncertain for at least one entry. For some assays here: Protein sequences can lack the tags named with them.

What was measured:
[1] = target: T1, ELAC2(D550N) (Homo sapiens) (UniProt Q9BQ52); assay: fluorescence anisotropy; details: 3 mM MgCl2; FA: 20 mM Tris-HCl pH 8, 80 mM NaCl, 40 mM KCl, 3 mM MgCl2, 5% glycerol, 2 mM DTT; 20 nM RNA; 20 min at 20 C, read at room temperature; recombinant protein; residues 32-826; protein details: N-terminal 6xHis-TEV (cleaved); label: internal FAM-UTP (5% spike)
T1 sequence (looked up): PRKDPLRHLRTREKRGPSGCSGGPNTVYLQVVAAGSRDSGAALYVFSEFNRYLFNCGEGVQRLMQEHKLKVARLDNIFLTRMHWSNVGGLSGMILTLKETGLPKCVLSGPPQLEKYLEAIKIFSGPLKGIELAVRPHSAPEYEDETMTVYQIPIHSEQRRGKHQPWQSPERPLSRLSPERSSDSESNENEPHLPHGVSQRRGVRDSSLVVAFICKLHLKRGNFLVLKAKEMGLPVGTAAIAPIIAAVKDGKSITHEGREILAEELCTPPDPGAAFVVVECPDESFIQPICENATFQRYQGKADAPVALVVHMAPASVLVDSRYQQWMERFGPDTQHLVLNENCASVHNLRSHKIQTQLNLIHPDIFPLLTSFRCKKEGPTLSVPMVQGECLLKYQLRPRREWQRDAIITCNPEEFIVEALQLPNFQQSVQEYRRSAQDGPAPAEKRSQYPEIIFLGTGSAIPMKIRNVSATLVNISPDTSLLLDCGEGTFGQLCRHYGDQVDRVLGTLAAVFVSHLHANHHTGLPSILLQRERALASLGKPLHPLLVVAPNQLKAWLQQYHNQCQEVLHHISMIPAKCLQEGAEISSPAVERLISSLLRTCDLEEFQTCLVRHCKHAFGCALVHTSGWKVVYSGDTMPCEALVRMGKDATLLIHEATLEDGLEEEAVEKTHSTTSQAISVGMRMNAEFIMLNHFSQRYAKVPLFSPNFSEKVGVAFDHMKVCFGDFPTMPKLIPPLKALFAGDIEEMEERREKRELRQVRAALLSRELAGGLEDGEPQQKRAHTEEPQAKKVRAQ

TRMT10C + SDR5C1 = assay: fluorescence anisotropy; details: 3 mM MgCl2; FA: 20 mM Tris-HCl pH 8, 80 mM NaCl, 40 mM KCl, 3 mM MgCl2, 5% glycerol, 2 mM DTT; 20 nM RNA; 20 min at 20 C, read at room temperature; recombinant protein; label: internal FAM-UTP (5% spike)

UAGGAUGGGGUGUGAUAGGUGGCACGGAGAAUUUUGGAUUCUCAGGGAUGGGUUCGAUUCUCAUAGUCCUAGAAAUAAGGGGGUUUAAGCUCCUAU [0-tRNAGln-24 (FAM-labeled pre-mt-tRNAGln)]
Kd [1]: 301 nM | Kd (TRMT10C + SDR5C1): 167 nM
